From PMC3928314, “Identification and Characterization of Sebaceous Gland Atrophy-Sparing DGAT1 Inhibitors” (PLoS ONE, 2014) come the findings set out here.

This series is described as follows: Skin compound concentration after 14 days oral dosing. It counts as in vivo, mouse. Conditions: DIO mice. How it is done: Experiments were performed in male diet induced obese C57BL/6 mice (Taconic Farms, Germantown, NY) that were fed high-fat diet (D12492: 60% kcal from fat; Research Diets) in a 12 hr light/12 hr dark cycle. Animal protocols used in these studies were approved by the Merck Research Laboratories Institutional Animal Care and Use Committee (Rahway, NJ). Mice were acclimated to nonspecific stress for 7 days before the onset of the chronic dosing studies where they were dosed orally with vehicle (0.5% methylcellulose) or compounds at 30 mg/kg, or at doses indicated, for 14 days.
The skin tissue samples from mice were weighted and placed in 48-well plates (or tubes). […] An aliquot of 100 µL homogenized blank skin tissue samples were transferred to 96-well plates designated for standard curve and QCs. […] An aliquot of 100 µL dosed skin tissue homogenates were transferred to the 96-well plate and a 25 µL aliquot of acetonitrile:water 1∶1 was added into each well containing dosed tissue samples to make the volumes of all samples, stds, and QCs equal. Protein precipitation was used for sample extraction by the addition of 500 µL of acetonitrile crash solution, containing IS. Internal standard used was Alprazolam (Sigma Aldrich) at 100 µM in the crash solution. Samples were vortexed for 30 seconds and then centrifuged at 4000 rpm for 5 min. The supernatant was transferred to a separate plate. […]

Regarding `O=C(Nc1ccc([C@H]2CC[C@H](C(=O)O)CC2)cc1F)c1nnc(Nc2ccc(F)c(F)c2)o1` [Cpd3], the “Skin/IC50 (skin concentration vs in vitro potency)” value was 12.27.
